The values below come from the supplement of paper PMC10849652.

Sequences of proteins named here, by UniProt entry; tags and fusion partners are left off. A change or cut given only in a name is not applied to a line headed by its entry.
UniProt Q9NZJ7, whole entry, looked up: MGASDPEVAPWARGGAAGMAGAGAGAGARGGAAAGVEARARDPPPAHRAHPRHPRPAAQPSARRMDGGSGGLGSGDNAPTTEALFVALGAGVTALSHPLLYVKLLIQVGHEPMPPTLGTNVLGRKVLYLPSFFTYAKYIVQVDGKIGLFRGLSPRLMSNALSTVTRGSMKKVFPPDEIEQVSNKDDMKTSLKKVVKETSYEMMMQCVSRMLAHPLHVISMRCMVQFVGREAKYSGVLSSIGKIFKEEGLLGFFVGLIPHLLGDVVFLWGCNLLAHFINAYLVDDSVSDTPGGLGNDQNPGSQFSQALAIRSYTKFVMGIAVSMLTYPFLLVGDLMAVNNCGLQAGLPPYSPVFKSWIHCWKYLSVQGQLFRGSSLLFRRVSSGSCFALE
UniProt P00846: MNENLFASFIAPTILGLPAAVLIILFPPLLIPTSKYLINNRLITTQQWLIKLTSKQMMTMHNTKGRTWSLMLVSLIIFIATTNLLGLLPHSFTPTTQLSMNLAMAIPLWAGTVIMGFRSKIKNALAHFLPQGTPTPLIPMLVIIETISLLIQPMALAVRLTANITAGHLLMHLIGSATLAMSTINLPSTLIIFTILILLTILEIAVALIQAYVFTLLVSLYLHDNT
UniProt Q96E11: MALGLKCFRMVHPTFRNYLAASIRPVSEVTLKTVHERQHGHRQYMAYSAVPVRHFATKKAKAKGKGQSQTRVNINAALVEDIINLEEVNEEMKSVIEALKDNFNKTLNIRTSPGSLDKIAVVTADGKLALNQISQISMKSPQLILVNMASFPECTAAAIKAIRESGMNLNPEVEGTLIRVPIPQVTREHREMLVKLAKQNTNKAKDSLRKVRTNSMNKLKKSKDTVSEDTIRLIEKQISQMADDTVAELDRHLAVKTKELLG
UniProt Q9C0I1: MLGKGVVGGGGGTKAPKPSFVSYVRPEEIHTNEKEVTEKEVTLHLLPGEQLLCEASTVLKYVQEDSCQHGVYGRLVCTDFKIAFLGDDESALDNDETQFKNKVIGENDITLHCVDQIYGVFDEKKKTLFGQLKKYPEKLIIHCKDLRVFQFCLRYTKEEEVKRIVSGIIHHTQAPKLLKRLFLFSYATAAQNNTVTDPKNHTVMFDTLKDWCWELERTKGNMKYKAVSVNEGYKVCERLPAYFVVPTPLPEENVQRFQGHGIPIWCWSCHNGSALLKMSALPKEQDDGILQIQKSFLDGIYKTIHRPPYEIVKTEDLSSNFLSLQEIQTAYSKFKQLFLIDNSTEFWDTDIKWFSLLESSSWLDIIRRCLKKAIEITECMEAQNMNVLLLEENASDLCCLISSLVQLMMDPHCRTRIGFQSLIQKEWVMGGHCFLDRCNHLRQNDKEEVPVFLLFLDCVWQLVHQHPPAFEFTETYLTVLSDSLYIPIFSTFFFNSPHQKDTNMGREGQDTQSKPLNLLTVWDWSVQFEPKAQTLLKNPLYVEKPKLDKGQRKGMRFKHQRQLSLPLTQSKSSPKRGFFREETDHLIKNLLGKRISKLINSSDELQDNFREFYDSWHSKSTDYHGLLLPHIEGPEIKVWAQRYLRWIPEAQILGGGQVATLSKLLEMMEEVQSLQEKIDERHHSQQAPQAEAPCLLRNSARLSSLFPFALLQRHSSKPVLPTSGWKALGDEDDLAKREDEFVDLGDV
UniProt P26038, whole entry, looked up: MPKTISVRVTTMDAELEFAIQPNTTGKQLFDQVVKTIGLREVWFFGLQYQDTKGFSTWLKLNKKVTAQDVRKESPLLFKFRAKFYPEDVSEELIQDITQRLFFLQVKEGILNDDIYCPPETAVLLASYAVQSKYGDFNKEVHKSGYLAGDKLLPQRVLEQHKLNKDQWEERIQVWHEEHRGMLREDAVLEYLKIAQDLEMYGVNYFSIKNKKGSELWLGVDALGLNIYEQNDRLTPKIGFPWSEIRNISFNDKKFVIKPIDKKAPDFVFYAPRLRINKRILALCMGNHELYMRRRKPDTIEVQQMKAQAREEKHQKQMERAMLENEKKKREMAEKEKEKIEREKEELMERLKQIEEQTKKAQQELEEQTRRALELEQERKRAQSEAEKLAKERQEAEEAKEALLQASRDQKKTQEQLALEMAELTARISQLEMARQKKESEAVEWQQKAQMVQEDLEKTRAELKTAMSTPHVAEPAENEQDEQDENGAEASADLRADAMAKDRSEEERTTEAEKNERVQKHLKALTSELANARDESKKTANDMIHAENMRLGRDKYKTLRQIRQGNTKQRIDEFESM
UniProt Q15800: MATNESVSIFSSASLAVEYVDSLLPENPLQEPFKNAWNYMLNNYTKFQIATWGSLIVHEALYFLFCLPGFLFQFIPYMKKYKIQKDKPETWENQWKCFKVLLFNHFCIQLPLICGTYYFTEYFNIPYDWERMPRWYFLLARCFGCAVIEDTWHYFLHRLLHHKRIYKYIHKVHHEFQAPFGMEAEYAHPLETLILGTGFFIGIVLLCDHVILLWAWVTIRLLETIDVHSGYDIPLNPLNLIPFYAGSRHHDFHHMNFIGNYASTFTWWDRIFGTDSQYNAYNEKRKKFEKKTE
UniProt Q9Y3D2: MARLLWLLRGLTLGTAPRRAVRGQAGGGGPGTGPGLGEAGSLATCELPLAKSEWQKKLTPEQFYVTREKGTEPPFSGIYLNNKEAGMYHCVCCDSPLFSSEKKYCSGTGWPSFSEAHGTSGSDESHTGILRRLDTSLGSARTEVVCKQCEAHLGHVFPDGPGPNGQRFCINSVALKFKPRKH
UniProt Q99417: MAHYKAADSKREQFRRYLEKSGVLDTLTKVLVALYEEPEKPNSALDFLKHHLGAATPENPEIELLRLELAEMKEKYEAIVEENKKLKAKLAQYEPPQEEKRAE
UniProt Q969V6: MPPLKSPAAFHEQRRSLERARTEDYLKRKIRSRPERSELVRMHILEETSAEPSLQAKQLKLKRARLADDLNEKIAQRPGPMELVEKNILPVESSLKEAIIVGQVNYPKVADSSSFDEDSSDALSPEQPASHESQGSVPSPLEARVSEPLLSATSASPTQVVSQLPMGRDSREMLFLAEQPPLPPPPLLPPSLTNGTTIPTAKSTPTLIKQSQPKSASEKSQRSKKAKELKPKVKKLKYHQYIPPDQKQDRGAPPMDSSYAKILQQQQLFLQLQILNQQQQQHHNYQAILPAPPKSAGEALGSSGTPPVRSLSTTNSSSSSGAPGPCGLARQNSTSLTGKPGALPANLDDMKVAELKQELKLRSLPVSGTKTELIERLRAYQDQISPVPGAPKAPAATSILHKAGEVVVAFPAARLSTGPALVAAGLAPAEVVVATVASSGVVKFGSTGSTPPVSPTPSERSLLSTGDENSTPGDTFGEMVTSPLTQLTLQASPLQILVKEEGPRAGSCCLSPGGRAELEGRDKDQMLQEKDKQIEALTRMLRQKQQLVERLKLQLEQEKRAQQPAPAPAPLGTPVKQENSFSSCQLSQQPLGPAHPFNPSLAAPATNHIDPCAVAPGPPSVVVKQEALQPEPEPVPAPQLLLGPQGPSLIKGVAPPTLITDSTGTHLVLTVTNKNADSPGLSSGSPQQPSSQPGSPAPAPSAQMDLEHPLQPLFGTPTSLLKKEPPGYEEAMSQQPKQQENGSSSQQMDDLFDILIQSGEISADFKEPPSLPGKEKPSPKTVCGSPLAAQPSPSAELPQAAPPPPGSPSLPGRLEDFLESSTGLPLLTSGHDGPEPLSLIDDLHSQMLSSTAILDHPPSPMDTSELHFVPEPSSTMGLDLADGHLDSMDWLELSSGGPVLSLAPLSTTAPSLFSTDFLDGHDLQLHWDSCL
UniProt P14649: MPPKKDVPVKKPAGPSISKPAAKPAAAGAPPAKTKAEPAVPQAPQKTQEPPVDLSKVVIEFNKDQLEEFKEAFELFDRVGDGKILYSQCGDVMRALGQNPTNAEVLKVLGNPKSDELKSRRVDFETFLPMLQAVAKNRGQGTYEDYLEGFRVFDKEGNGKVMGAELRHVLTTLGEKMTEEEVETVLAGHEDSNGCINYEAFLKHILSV
UniProt Q13496: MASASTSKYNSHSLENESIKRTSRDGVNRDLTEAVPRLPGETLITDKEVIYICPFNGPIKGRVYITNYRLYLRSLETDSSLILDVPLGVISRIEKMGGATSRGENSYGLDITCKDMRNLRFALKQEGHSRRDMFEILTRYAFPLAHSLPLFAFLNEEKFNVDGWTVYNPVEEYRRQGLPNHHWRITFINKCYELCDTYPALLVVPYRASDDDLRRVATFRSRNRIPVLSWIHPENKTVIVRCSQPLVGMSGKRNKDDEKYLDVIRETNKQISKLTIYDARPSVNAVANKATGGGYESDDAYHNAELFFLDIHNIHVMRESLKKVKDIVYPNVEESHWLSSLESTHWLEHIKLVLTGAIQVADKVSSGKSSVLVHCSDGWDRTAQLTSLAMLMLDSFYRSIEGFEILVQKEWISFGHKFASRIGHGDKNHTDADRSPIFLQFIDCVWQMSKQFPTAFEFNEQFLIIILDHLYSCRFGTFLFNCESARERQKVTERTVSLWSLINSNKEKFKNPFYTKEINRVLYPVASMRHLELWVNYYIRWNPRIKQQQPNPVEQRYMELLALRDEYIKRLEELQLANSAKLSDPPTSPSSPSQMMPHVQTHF
UniProt P82909: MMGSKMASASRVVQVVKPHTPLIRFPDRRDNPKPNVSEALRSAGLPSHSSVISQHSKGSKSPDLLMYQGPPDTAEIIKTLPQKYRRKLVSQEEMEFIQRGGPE
UniProt Q8NCE2: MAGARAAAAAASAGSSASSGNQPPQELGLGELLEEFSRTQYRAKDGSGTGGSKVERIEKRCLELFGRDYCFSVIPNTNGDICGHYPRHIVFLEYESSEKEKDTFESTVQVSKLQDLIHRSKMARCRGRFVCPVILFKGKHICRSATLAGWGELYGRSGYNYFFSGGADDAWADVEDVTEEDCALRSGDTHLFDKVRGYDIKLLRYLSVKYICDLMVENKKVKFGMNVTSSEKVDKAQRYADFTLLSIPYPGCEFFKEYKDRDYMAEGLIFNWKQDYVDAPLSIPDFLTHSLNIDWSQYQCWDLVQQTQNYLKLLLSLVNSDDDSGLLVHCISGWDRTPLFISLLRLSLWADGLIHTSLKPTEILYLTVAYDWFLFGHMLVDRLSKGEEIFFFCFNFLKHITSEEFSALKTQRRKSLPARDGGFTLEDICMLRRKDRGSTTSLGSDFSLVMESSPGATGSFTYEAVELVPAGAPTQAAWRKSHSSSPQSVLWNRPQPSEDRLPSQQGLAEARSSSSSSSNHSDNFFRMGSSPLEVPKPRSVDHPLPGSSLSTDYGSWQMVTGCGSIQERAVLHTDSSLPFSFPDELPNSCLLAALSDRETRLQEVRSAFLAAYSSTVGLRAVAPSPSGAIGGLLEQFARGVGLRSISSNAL
UniProt O75431: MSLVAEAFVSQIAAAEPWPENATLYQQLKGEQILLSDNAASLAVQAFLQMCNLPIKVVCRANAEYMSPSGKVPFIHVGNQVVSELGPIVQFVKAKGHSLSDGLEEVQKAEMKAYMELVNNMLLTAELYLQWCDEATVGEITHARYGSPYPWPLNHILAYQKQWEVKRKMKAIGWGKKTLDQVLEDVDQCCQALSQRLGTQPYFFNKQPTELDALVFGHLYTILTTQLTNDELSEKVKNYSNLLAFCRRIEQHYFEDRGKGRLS
UniProt Q13330: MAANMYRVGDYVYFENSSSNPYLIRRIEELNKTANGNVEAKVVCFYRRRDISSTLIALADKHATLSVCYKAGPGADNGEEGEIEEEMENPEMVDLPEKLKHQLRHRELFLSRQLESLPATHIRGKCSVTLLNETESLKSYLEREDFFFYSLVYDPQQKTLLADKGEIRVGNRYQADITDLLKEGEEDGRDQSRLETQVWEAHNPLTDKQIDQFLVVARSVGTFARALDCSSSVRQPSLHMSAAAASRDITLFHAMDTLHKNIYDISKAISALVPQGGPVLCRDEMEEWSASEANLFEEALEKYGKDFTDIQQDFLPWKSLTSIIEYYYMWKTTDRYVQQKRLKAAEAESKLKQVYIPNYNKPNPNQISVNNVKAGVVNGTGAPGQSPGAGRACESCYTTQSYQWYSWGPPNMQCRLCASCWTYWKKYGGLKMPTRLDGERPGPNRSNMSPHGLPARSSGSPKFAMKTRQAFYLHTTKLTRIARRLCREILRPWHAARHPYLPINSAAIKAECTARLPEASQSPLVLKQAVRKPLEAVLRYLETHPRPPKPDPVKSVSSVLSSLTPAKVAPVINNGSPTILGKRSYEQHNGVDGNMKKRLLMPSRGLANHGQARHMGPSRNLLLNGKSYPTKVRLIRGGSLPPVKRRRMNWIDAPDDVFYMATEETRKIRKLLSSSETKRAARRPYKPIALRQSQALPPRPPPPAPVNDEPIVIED
UniProt Q96S97: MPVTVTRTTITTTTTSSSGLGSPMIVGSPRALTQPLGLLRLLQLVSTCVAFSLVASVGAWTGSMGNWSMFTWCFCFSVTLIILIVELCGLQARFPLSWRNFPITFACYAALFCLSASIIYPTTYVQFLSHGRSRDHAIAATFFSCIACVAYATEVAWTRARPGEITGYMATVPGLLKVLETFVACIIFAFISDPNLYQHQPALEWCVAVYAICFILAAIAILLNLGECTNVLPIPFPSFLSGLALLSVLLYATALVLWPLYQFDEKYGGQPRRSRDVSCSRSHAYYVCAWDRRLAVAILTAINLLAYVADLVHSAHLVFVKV

This is one part of the list.

Compound in the test: c1cc(OCCN2CCCCC2)cc(-c2n[nH]c3ccc(-c4nnc[nH]4)cc23)c1
Put plainly: log2 fold change, soluble protein after heating vs DMSO (PISA); higher = thermal stabilisation; K562 cells, 10 uM, 30 min; active = over 0.2 and 3.5 SD of the protein, either way, in both replicates (recomputed). In outline: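 Aliquots of K562 cells (2×10^6 cells/mL) treated with 10 μM compound for 30 min were heated for 3 min over 48°C-58°C. After pooling and extraction in PBS with 0.5% NP-40 at 4°C, soluble protein from a 21,000xg, 90 min spin was quantified by TMTpro 16plex LC-MS/MS with channel sums equalised. Thermal stability is expressed against control samples, from duplicates, as a log2 fold change.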
As for MTCH1 (UniProt Q9NZJ7), the log2 fold change is inactive: -0.031. MTHFD2 (UniProt P13995): the log2 fold change was inactive: 0.001.

In the case of MT-CYB (UniProt P00156), the log2 fold change was inactive: -0.372. With MYH11 isoform 2 (UniProt P35749) the figure was inactive: -0.034; with MT-ATP6 (UniProt P00846), inactive: -0.04.

As to MYO1D (UniProt O94832), the log2 fold change was inactive: -0.096.

As for MTHFD1, A0A384N5Y3, the log2 fold change is inactive: 0.041. Regarding MRRF (UniProt Q96E11), the log2 fold change is inactive: 0.019. Turning to MTMR12 (UniProt Q9C0I1), the log2 fold change was inactive: -0.007. With MSN (UniProt P26038) the figure was inactive: 0.011.

Turning to MSMO1 (UniProt Q15800), the log2 fold change is inactive: 0.043. With MRPS10 (UniProt P82664), the log2 fold change was inactive: -0.08. As to MTMR6 (UniProt Q9Y217), the log2 fold change is inactive: 0.051. Consider MUCL1 (UniProt Q96DR8), for which the log2 fold change was inactive: 0.29. For the target MRPS2 (UniProt Q9Y399), the log2 fold change was inactive: -0.01. Under MRPS15 (UniProt P82914) stands inactive: -0.031. For MRPS27 isoform 2 (UniProt Q92552), the log2 fold change was inactive: -0.012.

Take MSRB2 (UniProt Q9Y3D2): the log2 fold change is inactive: 0.161. As to MYCBP (UniProt Q99417), the log2 fold change is inactive: -0.043. In the case of MRPS11 (UniProt P82912), the log2 fold change was inactive: -0.021. Regarding MRPS33 (UniProt Q9Y291), the log2 fold change is inactive: -0.052. For MRTFA (UniProt Q969V6), the log2 fold change is inactive: 0.015.

As for MYL6B (UniProt P14649), the log2 fold change was inactive: -0.015. Turning to MTM1 (UniProt Q13496), the log2 fold change is inactive: -0.023.

With MRPS36 (UniProt P82909), the log2 fold change is inactive: 0.059. For the target MTRR isoform 1 (UniProt Q9UBK8), the log2 fold change was inactive: -0.049. With MRPS24 (UniProt Q96EL2) the figure was inactive: -0.105; with MTPAP (UniProt Q9NVV4), inactive: -0.093; with MRPL9 (UniProt Q9BYD2), inactive: -0.049. Under MRPS30 (UniProt Q9NP92) stands inactive: 0.092. In the case of MTMR14 (UniProt Q8NCE2), the log2 fold change is inactive: 0.039.

Regarding MTX2 (UniProt O75431), the log2 fold change was inactive: -0.079. On to MTA1 (UniProt Q13330), for which the log2 fold change was inactive: -0.036.

With MYADM (UniProt Q96S97), the log2 fold change was inactive: -0.106. For MTOR (UniProt P42345), the log2 fold change is inactive: -0.004. On to MYO6 isoform 6 (UniProt Q9UM54), for which the log2 fold change was inactive: -0.04. MYH9 (UniProt P35579): the log2 fold change is inactive: 0.007. With MRPS18A isoform 2 (UniProt Q9NVS2) the figure was inactive: -0.083; with MRS2 (UniProt Q9HD23), inactive: -0.021.
